Reference: PubChem BioAssay AID1347075 (National Center for Advancing Translational Sciences (NCATS), 2019)
Out of some 400,000 compounds screened, about 5,500 (1.4%) were called active. Inconclusive means that the source gave no clear call. Such entries were picked first, then a sample of the others. Calls follow the shape of the dose curve; as a rule, active = well fitted cell-killing curve with a large enough effect; inconclusive = small, poorly fitted or top-dose-only effect, or effect the other way; inactive = flat fitted curve, though single readings scatter. Potencies of inconclusive entries are doubtful fits and often do not repeat.

test: qHTS assay for MDR1-selective chemotherapeutics: Primary screen using the parental adenocarcinoma cell KB-3-1; details: KB-3-1 viability, CellTiter-Glo ATP luminescence, 72 h; activity change, negative = cytotoxic: at 46.1 µM (top of the series); also: nearly all actives have a fitted effect of over 60% in size
Procedure, shortened: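 Cytotoxicity in the drug-sensitive parental line KB-3-1 was scored as loss of CellTiter-Glo luminescence following 72 h incubation with compound. Values come from curve fitting of normalized concentration-response data.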
% is scaled to controls: 0 for no effect and ±100 for the full control effect; potency is read from the fitted curve at half-maximal effect.

Q: With `O=C(NCc1ccncc1)[C@@H]1CCCN1C(=O)[C@H]1CCCN1` as the molecule, how does the activity change, negative = cytotoxic read?
A: inconclusive: 0.719%

Q: For `Fc1ccccc1CNc1ccc(Cl)cc1`, which “activity change, negative = cytotoxic” value is on record?
A: inactive: 9.44%

Q: With `COC(=O)c1ccccc1S(=O)(=O)N1CCC(C(=O)OC(C)C(=O)Nc2ccc(NC(C)=O)cc2)CC1` (configuration not stated) as the molecule, how does the Potency read?
A: inconclusive: 32.6 µM [rising, single point]

Q: With `COc1ccc(-c2nnc(NC(=O)c3cc(Cl)ccc3Cl)o2)cc1` as the molecule, how does the Potency read?
A: inconclusive: 29.1 µM [cytotoxic, single point]

Q: For `CC1CCCCN1CC(O)COCc1ccc(Cl)cc1` (configuration not stated), which “activity change, negative = cytotoxic” value is on record?
A: inactive: -4.05%

Q: Which Potency does the source give for `C#CCOCCOCCOCCNc1nc(N2CCN(C(=O)C(Cc3cc4ccccc4[nH]3)n3cc(C(N)C(C)CC)nn3)CC2)nc(N2CCN(C(=O)C(Cc3cc4ccccc4[nH]3)n3cc(C(N)C(C)CC)nn3)CC2)n1` (configuration not stated) here?
A: inconclusive: 32.6 µM [rising, partial curve, poor fit]

Q: For `OCC1(Cc2cccc(Cl)c2)CCCN(Cc2ccc3cc(F)ccc3n2)C1` (configuration not stated), which Potency is on record?
A: inconclusive: 23.1 µM [cytotoxic, partial curve]

Q: For `CCOC(=O)c1sc(SC)c2c1CCC/C2=N/OC`, which “activity change, negative = cytotoxic” value is on record?
A: inactive: 7.36%

Q: Which “activity change, negative = cytotoxic” value does the source give for `CC(NC(=O)c1ccc([N+](=O)[O-])cc1[N+](=O)[O-])c1ccc(-c2ccccc2)cc1` (configuration not stated) here?
A: inactive: -13.2%

Q: For `CC(=O)Oc1ccc(N(C(C)=O)S(=O)(=O)c2cccs2)c2ccccc12`, which “activity change, negative = cytotoxic” value is on record?
A: inactive: -7.27%

Q: Which Potency does the source give for `O=C(CCC(=O)N1CCN(S(=O)(=O)c2ccc(Cl)cc2)CC1)NCc1cccc(C(F)(F)F)c1` here?
A: inconclusive: 29.1 µM [cytotoxic, single point]

Q: For `COc1ccc(C(=O)/C=C2/C(=O)Nc3ccccc32)c(OC)c1`, which Potency is on record?
A: inconclusive: 29.1 µM [cytotoxic, single point]

Q: With `CC(C)c1ccc(Nc2ncccc2C(=O)O)cc1` as the molecule, how does the Potency read?
A: inconclusive: 29.1 µM [cytotoxic, single point]

Q: For `COCCSc1nnc(NC(=O)c2ccc(NC(C)=O)cc2)s1`, which Potency is on record?
A: inconclusive: 2.06 µM [rising, partial curve, poor fit]

Q: With `CCOc1ccc(C(c2c(NC(=O)c3ccccc3)sc(C)c2C)N2CCN(CCO)CC2)cc1` (configuration not stated) as the molecule, how does the Potency read?
A: inconclusive: 16.4 µM [cytotoxic, single point]

Q: For `Cc1ccsc1/C=N/Nc1ccc(C(=O)O)cc1`, which “activity change, negative = cytotoxic” value is on record?
A: inactive: -10.9%

Q: With `COc1ccccc1Cn1c(=O)c2ccccc2n2c(Sc3ncnc4sccc34)nnc12` as the molecule, how does the Potency read?
A: inconclusive: 29.1 µM [cytotoxic, single point]

Q: With `Cc1cccc(C(=O)C2CCN(S(=O)(=O)c3cccc(C(=O)O)c3)CC2)c1` as the molecule, how does the “activity change, negative = cytotoxic” value read?
A: inactive: 7.64%

Q: For `N#Cc1ccc(OCC(=O)Nc2ccc(N3CCCC3)cc2)cc1`, which “activity change, negative = cytotoxic” value is on record?
A: inactive: 0.461%

Q: With `O=C1CC(c2ccccc2Cl)CC(O)=C1C=Nc1ccccc1` (configuration not stated) as the molecule, how does the Potency read?
A: inconclusive: 14.6 µM [cytotoxic, partial curve, poor fit]

Q: With `Cc1ccc(C)c(NC(=S)NC(NC(=O)Cc2ccccc2)C(Cl)(Cl)Cl)c1` (configuration not stated) as the molecule, how does the “activity change, negative = cytotoxic” value read?
A: inactive: -13.3%

Q: Which “activity change, negative = cytotoxic” value does the source give for `COc1cc2c(cc1NC(=O)COc1ccccc1OC)oc1ccccc12` here?
A: inactive: 9.34%

Q: With `CCN1c2ccccc2-c2nc3ccccc3n2C1c1ccco1` (configuration not stated) as the molecule, how does the Potency read?
A: inconclusive: 29.1 µM [cytotoxic, single point]

Q: For `O=C(Nc1ccc(Br)cc1)c1ccc(F)c(S(=O)(=O)N2CCN(c3ccccn3)CC2)c1`, which Potency is on record?
A: inconclusive: 25.9 µM [cytotoxic, partial curve, poor fit]

Q: For `CC1=C(C(=O)OC2CCCCCC2)C(c2ccccc2Cl)CC(=O)N1` (configuration not stated), which “activity change, negative = cytotoxic” value is on record?
A: inactive: 3.99%

Q: With `CCOC(=O)N1CCN(C(=O)Cn2nc(C)n3nc(-c4ccccc4)cc3c2=O)CC1` as the molecule, how does the “activity change, negative = cytotoxic” value read?
A: inactive: 3.42%

Q: With `COc1ccc(Cn2c(C(=O)O)c(CNCCc3cccs3)c3ccc(OC)cc32)cc1` as the molecule, how does the Potency read?
A: inconclusive: 29.1 µM [cytotoxic, single point]

Q: With `COc1ccc(C2C(C(=O)Nc3cc(OC)c(OC)c(OC)c3)c3ccccc3C(=O)N2C)cc1` (configuration not stated) as the molecule, how does the Potency read?
A: inconclusive: 5.17 µM [cytotoxic, full curve, poor fit]

Q: Which “activity change, negative = cytotoxic” value does the source give for `CCN1CCN(CCCNC(=O)c2ccc(CS(=O)c3ccc(Br)cc3)o2)CC1` (configuration not stated) here?
A: inactive: 6.13%

Q: With `Cc1ccc(NC(=O)c2cccc(S(=O)(=O)NCc3ccccc3)c2)nc1` as the molecule, how does the Potency read?
A: inconclusive: 23.1 µM [cytotoxic, single point]

Q: Which Potency does the source give for `COC(=O)c1ccccc1NC(=O)c1cnn2c1NC(=C1CC1)C=C2C(F)F` here?
A: inconclusive: 14.6 µM [cytotoxic, single point]

Q: With `CCc1c(-c2cccc(Br)c2)ncn1Cc1cccc(-c2ccccc2)c1` as the molecule, how does the activity change, negative = cytotoxic read?
A: inconclusive: -22.3%

Q: For `CCC1(c2ccc(F)cc2)NC(=O)NC1=O` (configuration not stated), which “activity change, negative = cytotoxic” value is on record?
A: inactive: -5.56%

Q: With `CCOC(=O)c1[nH]c2ccc(OC)cc2c1NC(=O)c1ccc(OC)c(OC)c1` as the molecule, how does the Potency read?
A: inconclusive: 2.91 µM [rising, partial curve]

Q: For `C=CCOc1ccc(C2C(C(=O)c3ccco3)=C(O)C(=O)N2c2nnc(C)s2)cc1` (configuration not stated), which “activity change, negative = cytotoxic” value is on record?
A: inactive: -1.99%

Q: For `O=C(O)c1cc(N/N=C2/CC(c3ccccc3)Oc3ccccc32)ccc1Cl` (configuration not stated), which “activity change, negative = cytotoxic” value is on record?
A: inactive: -5.73%

Q: With `COc1cc(CNCc2ccccn2)ccc1OCc1ccccc1Cl` as the molecule, how does the Potency read?
A: inconclusive: 23.1 µM [cytotoxic, single point]

Q: Which “activity change, negative = cytotoxic” value does the source give for `CN(C)/N=C/c1ccc(/C=N/NC(N)=S)o1` here?
A: inactive: -3.03%

Q: For `Cc1ccc(C)c(N2CCN(C(=O)C(C)n3c(C)c4cnn(-c5ccccc5)c(=O)c4c3C)CC2)c1` (configuration not stated), which “activity change, negative = cytotoxic” value is on record?
A: inactive: 0.825%

Q: With `Cc1ccc(SCC(=O)OCC(=O)NCCNC(=O)COC(=O)CSc2ccc(C)c(C)c2)cc1C` as the molecule, how does the Potency read?
A: active: 0.0052 µM

Q: Which “activity change, negative = cytotoxic” value does the source give for `Cc1cc(C)n(C(C)CC(=O)N2CCc3ccccc32)n1` (configuration not stated) here?
A: inactive: 0.846%

Q: For `CCn1c(C)c(C)c2cc(C(=O)N3CCc4ccccc4C3)ccc21`, which Potency is on record?
A: active: 13 µM

Q: Which Potency does the source give for `CSc1nsc(SCC(=O)Nc2nc3ccccc3s2)n1` here?
A: inconclusive: 11.6 µM [rising, single point]

Q: Which “activity change, negative = cytotoxic” value does the source give for `CC(=O)c1ccc(N2CCN(C(=S)Nc3cccc(F)c3)CC2)cc1` here?
A: inactive: -9.61%

Q: With `Cc1ccc(-c2ccc(/C=N\NC(=O)c3cc4c(ccc5ccccc54)o3)o2)cc1[N+](=O)[O-]` as the molecule, how does the Potency read?
A: inconclusive: 18.4 µM [cytotoxic, single point]

Q: With `CN1CCN([C@@H]2CS(=O)(=O)N[C@H]2COCc2ccccc2)CC1` as the molecule, how does the “activity change, negative = cytotoxic” value read?
A: inactive: 0.0564%

Q: Which activity change, negative = cytotoxic does the source give for `Cc1ccc(CNC(=O)c2c(-c3ccccc3Cl)noc2C)cc1` here?
A: inconclusive: -1.46%
